# Laboratory results published in patent US20130281544A1, “HEPATOPROTECTANT ACTIVITY OF GARCINOL” (priority 2010, published 2013).
# For at least one compound, name, drawing or mass did not settle the structure.
# Legend:
# [1] = system: paracetamol induced liver damage in rats; assay: TGF-beta 1 and ICAM-1 expression in liver homogenate, paracetamol induced liver damage (ELISA); type: in vivo, Male Wistar Rats; conditions: 1.25, 2.5, 5, 10 mg/kg p.o. for seven days
# [2] = system: carbon tetrachloride induced liver damage in rats; assay: TNF-α, IL-2 and IL-4 in blood, carbon tetrachloride induced liver damage (flow cytometry); type: in vivo, Male Wistar Rats; conditions: CCl4, 1.25, 2.5, 5, 10 mg/kg p.o.
# [3] = system: paracetamol induced liver damage in rats; assay: Serum enzymes ALT, AST, ALP in paracetamol (APAP) induced liver damage; type: in vivo, Male Wistar Rats
# Procedure: (§1) Doses of Garcinol (GC) used for the study: 1.25, 2.5, 5, 10 mg/kg p.o.
# (§2) Standard drug: Silymarin (50 mg/kg) p.o.
# Experimental animals orally received paracetamol (400 mg/kg body weight) for seven days. The animals from drug treated group received 400 mg/kg body weight of paracetamol dissolved in water orally along with graded doses of test drug Garcinol for seven days. The standard group animals received 50 mg/kg body weight of standard drug silymarin and 400 mg/kg body weight of paracetamol for seven days and served as standard control. [N. Kanchana and A. Mohamed Sadiq, Hepatoprotective effect of Plumbago zeylanica on paracetamol induced liver toxicity in rats, Int J Pharm Pharm Sci, Vol 3, Issue 1, 151-154 (2011)].
# (§3) Blood was collected from the retro-orbital plexus of experimental animals and no anti-coagulant was added. Blood was made to stand at room temperature for 1 hour. It was then centrifuged and clear serum was separated. The serum was then stored for analysis. Reference: (Magari et al., 2004).
# (§4) (ASPARTATE AMINOTRANSFERASE and ALANINE AMINOTRANSFERASE), Reference: Ritman S, Frankel S, (1957). A colorimeteric method for the determination of serum glutamic oxaloacetic and glutamic pyruvic transaminases. American Journal of Clinical Pathology; 28: 56-63.
# (§5) 0.2 ml of serum, collected from test and control samples, was mixed with 1.0 ml of buffer solution and incubated for 60 min at 37° C. in a water bath. After the addition of 1.0 ml of chromogen solution, the samples were kept at room temperature for 20 minutes for the reaction to proceed and 10 ml NaOH was added. The optical density was red at 546 nm after 5 min. To the blank, serum was added after the addition of chromogen solution.
# (§6) (ALKALINE PHOSPHATASE), Reference: Klaus Walter and Schutt C. (1974). Acid and alkaline phosphatase in serum. In: Methods of Enzymatic Analysis. Eds. Hans Ulrich Bergmeyer, Verlag ChemieWeinheim, Academic press, Inc. New York, 2nd Edition, Vol. 2, pp. 855-64.
# (§7) Alkaline phosphatase activity measurement is based on the ability of the enzyme to hydrolyze p-nitrophenol phosphate under alkaline conditions. The cleaved product p-nitrophenol is yellow in alkaline solution and is measured at 400-420 nm (Klaus and Schutt, 1974). 2.0 ml of buffered substrate was taken in the tubes ‘Test’ ‘Control’ and ‘Blank’ followed by addition of serum and distilled water (0.1 ml) in ‘Test’ and ‘Blank’ respectively and incubated in a water bath for 30 minutes at 25° C. After incubation sodium hydroxide was added (0.25 N, 2 ml) to all the tubes, which was followed by serum (0.1 ml) to the tubes marked ‘Control’. The yellow colour formed was measured spectrophotometrically against blank at 410 nm. […]
# [4] = system: paracetamol induced liver damage in rats; assay: TNF-α in blood, paracetamol induced liver damage (flow cytometry); type: in vivo, Male Wistar Rats; conditions: 1.25, 2.5, 5, 10 mg/kg p.o. for seven days, FIG. 9
# [5] = system: carbon tetrachloride induced liver damage in rats; assay: TGF-β1, ICAM-1 and CRP expressions in liver homogenates, carbon tetrachloride induced liver damage (ELISA); type: in vivo, Male Wistar Rats; conditions: liver homogenate, CCl4, 1.25, 2.5, 5, 10 mg/kg p.o.
# [6] = system: alcohol (Ethyl alcohol) induced hepatotoxic animal models; assay: TNF-α, IL-1β and IL-12 in serum of alcohol (ethyl alcohol) induced hepatotoxic animal models (ELISA); type: in vivo, Male Wistar Rats; conditions: 1.25, 2.5, 5, 10 mg/kg p.o.
# [7] = system: histone acetyltransferases (HATs); conditions: both in vitro and in vivo; Tapas et al 2004; cited from earlier work
# [8] = system: alcohol (Ethyl alcohol) induced hepatotoxic animal models; assay: Serum ALT, AST, ALP and bilirubin in alcohol (ethyl alcohol) induced hepatotoxic animal models; type: in vivo, Male Wistar Rats; conditions: ethyl alcohol induced hepatotoxic experimental models; summary of Table 5
# Procedure: as §1, §2
# Male Wistar rats, weighing 180-200 g, were given 0.5-0.6 ml ethanol orally. […] All rats had regular standard rat chow available throughout the 6-week period. Rats were weighted three times per week. [Guangjin Yuan, Zuojiong Gong *, Xiaorong Zhou, Pin Zhang, Xiaomei Sun and Xi Li. Epigallocatechin-3-Gallate Ameliorates Alcohol-Induced Liver Injury in Rats. Int. J. Mol. Sci. 2006, 7, 204-219]. Blood was collected from the retro-orbital plexus of experimental animals and no anti-coagulant was added. Blood was made to stand at room temperature for 1 hour. It was then centrifuged and clear serum was separated. The serum was then stored for analysis. Reference: (Magari et al., 2004).
# (ASPARTATE AMINOTRANSFERASE and ALANINA AMINOTRANSFERASE), Reference: Ritman S, Frankel S, (1957). A colorimetric method for the determination of serum glutamic oxaloacetic and glutamic pyruvic transaminases. American Journal of Clinical Pathology; 28: 56-63.
# as §5, §6
# Alkaline phosphatase activity measurement is based on the ability of the enzyme to hydrolyze p-nitrophenol phosphate under alkaline conditions. The cleaved product p-nitrophenol is yellow in alkaline solution and is measured at 400-420 nm (Klaus and Schutt, 1974). 2.0 ml of buffered substrate was taken in the tubes ‘Test’ ‘Control’ and ‘Blank’ followed by addition of serum and distilled water (0.1 ml) in ‘Test’ and ‘Blank’ respectively and incubated in a water bath for 30 minutes at 25° C. After incubation sodium hydroxide was added (0.25 N, 2 ml) to all the tubes, which was followed by serum (0.1 ml) to the tubes marked ‘Control’. The yellow colour formed was measured spectrophotometrically against blank at 410 nm.
# [BILIRUBIN (BRBN)], Reference: Malloy H T and Evelyn K A (1937). The determination of bilirubin with photoelectric colorimeter. Journal of Biological Chemistry 119: 481-490.
# (§8) Serum bilirubin was estimated by the method of Malloy and Evelyn (1937). […] The tubes were read after 10 minutes at 540 nm.
# [9] = system: carbon tetrachloride induced liver damage in rats; assay: Bilirubin and serum enzymes ALT, AST, ALP in carbon tetrachloride induced liver damage; type: in vivo, Male Wistar Rats; conditions: CCl4 induced liver damage in rats; summary of Table 3
# Procedure: as §1, §2
# Liver injury was induced by administration of carbon tetrachloride (CCl4) mixed with liquid paraffin (5 fold dilution). Animals were given single dose of CCl4 at 1 ml/kg, p.o. followed by the administration of garcinol (Table 2). [(i) Bramanti G, Murmann W, Pierini P and Comporti M (1978). Effect of cicloxilic acid on CCl4-induced liver injury. Drug Research 28: 1112-1217. (ii) B Singh, A K Saxena, B K Chandan, K K Anand (1998). Hepatoprotective activity of Verbenalin on experimental liver damage in rodents. Fitoterapia LXIX 2: 135-140. (iii) B. K. Chandan, A. K. Sharma, K. K. Anand Boerhaavia difiusa: A study of its hepatoprotective activity. Journal of Ethnopharmacology, Volume 31, Issue 3, March 1991, Pages 299-307].
# as §3, §4, §5, §6
# as §7, with “After incubation sodium hydroxide was added (0.25 N, 2 ml) to all the tubes, which was followed by serum (0.1 ml) to the tubes marked ‘Control’.” left out
# as §8
# [10] = system: Hep G2 liver cancer cell line; type: cell-based; conditions: lower concentrations (values below 6.25 μg/ml)
smiles,measurement,setting,value
C=C(C)[C@@H](CC=C(C)C)C[C@@]12C[C@@H](CC=C(C)C)C(C)(C)[C@@](CC=C(C)C)(C(=O)C(C(=O)c3ccc(O)c(O)c3)=C1O)C2=O [Garcinol],TGF-beta expression in the liver,[1]; FIG. 7,dose dependent inhibition of increased levels
same,ICAM-1 expression in the liver,[1]; FIG. 8,dose dependent inhibition of increased levels
same,TNF-α expressed in the blood,[2]; FIG. 4,dose based inhibition
same,IL-2 expressed in the blood,[2]; FIG. 5,dose based inhibition
same,IL-4 expressed in the blood,[2]; FIG. 6,dose based inhibition
same,bilirubin levels (in words),[3],reduced increased levels
same,Alanine Transaminase (ALT) levels (in words),[3]; summary of Table 4,reduced increased levels
same,Alkaline Phosphatase (ALP) levels (in words),[3]; summary of Table 4,reduced increased levels
same,Aspartate Aminotransferase (AST) levels (in words),[3]; summary of Table 4,reduced increased levels
same,TNF-α levels,[4],dose dependant reduction of increased levels
same,TGFβ levels,[5]; FIG. 1,inhibited increased levels
same,ICAM-1 levels,[5]; FIG. 2,inhibited increased levels
same,C-reactive protein (CRP) levels,[5]; FIG. 3,inhibited increased levels
same,Interleukin-1 beta levels,[6]; FIG. 10,inhibited increased levels
same,TNF-alpha levels,[6]; FIG. 10,inhibited increased levels
same,Interleukin-12 levels,[6]; FIG. 11,inhibited increased levels
same,inhibition of histone acetyltransferases (HATs),[7],potent inhibitor
same,ALP levels (in words),[8],reduced the increased levels
same,ALT levels (in words),[8],reduced the increased levels
same,AST levels (in words),[8],reduced the increased levels
same,bilirubin levels (in words),[8],reduced the increased levels
same,Alanine Transaminase (ALT) levels (in words),[9],reduced increased levels
same,Alkaline Phosphatase (ALP) levels (in words),[9],reduced increased levels
same,Aspartate Aminotransferase (AST) levels (in words),[9],reduced increased levels
same,bilirubin levels (in words),[9],reduced increased levels
same,hepatoprotective effect,[10],comparative hepatoprotective effect like Silymarin
